Laboratory results published in the supplement of paper PMC12595434, “Development of retinoid nuclear receptor pathway antagonists through targeting aldehyde dehydrogenase 1A3” (iScience, 2025).
This is one part of the list. Single values of this set are uncertain.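 Tm was set to 64 °C where no melting was found, and many curves are irregular.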

Biological target: UniProt Q15413
Test: melting temperature shift (DMSO Tm minus MBE1-treated Tm) in cellular thermal proteome profiling; higher = less thermal stabilization by MBE1 (negative = stabilized by MBE1)
Details: A375

Structure (SMILES): CCc1cnccc1C(=O)Nc1cc2c(cc1F)NC(=O)CC2
- melting temperature shift (MBE1 concentration: 100 nM): -2.19 °C
- melting temperature shift (MBE1 concentration: 1 uM): 1.06 °C
